Test results: US5635597A (Affymax Technologies, N.V., priority 1994, dated 1997)
For part of these data: At least one peptide structure holds a part that was inferred or is arguable (an end, a ring closure or a residue). For part of these data: At least one compound was matched to its structure with a doubt left. Where a SMILES comes first, the peptide text is derived from it. Bridges are numbered along the chain shown (N, C = ends). Where no end group is shown, it is not given here.

Experiments:
[1] = molecular target: T1, soluble IL-2Rαβ heterodimer (Homo sapiens, UniProt P01589+P14784); experiment: Radioligand binding assay, IL-2 binding to soluble IL-2Rαβ heterodimer; settings: read-out: IC50, blocks IL-2 binding to soluble IL-2Rαβ heterodimer; radioligand binding assay format
T1 construct: was produced in recombinant host cells in a truncated form; made in house; host or cells: recombinant host cells (baculovirus system or PIG-tailed CHO cells named as options)
T1 sequence (P01589 22-240 limits assumed): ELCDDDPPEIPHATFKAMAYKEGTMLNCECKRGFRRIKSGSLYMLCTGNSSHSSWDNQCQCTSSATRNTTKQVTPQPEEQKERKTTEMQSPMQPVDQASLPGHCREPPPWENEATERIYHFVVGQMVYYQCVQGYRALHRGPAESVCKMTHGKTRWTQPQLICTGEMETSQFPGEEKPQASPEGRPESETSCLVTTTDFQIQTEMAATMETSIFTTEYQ
T1 sequence (P14784 27-240 limits assumed): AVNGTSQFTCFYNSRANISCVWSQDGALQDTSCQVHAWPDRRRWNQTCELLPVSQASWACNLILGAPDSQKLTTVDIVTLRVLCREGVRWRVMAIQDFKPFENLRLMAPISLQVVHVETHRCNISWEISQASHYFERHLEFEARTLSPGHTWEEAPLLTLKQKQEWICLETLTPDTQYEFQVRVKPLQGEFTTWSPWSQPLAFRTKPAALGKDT

βγ-subunit [2] = molecular target: T2, βγ-subunit (Homo sapiens, UniProt P14784+P31785); experiment: Phage-ELISA competition with phage bearing peptides, βγ-subunit; format: binding; settings: phage-ELISA assay
T2 construct: was produced in recombinant host cells in a truncated form; made in house; host or cells: recombinant host cells (not fixed)
T2 sequence (P14784 27-240 limits assumed): T1 sequence (P14784 27-240 limits assumed)
T2 sequence (P31785 23-262 limits assumed): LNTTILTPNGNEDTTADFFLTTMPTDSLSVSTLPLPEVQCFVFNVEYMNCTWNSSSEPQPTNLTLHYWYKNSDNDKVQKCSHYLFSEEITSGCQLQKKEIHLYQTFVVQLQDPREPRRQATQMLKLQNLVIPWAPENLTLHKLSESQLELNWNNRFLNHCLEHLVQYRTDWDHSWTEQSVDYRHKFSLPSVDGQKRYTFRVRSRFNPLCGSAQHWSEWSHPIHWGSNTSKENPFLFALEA
From the text: After several rounds of affinity enrichment, the phage or plasmids and accompanying peptides were examined by ELISA to determine if the peptides bind specifically to the receptor. […] By comparing test wells with control wells containing an unrelated receptor, one can determine whether a peptide binds to IL-2Rα (or IL-2Rβ, γ, αβ, or βγ) specifically.
Random pVIII 10-mer and 11-mer libraries were also screened against immobilized IL-2Rγ monomer in a phage ELISA assay at high receptor density.

βγ-subunit [3] = molecular target: T2, βγ-subunit; experiment: Binding to βγ-subunit and competition with radiolabelled ligand
From the text: (§1) Random pVIII 10-mer and 11-mer libraries were also screened against immobilized IL-2Rγ monomer in a phage ELISA assay at high receptor density. […] These peptides also bound to the βγ-subunit and competed with radiolabelled ligand.

[4] = molecular target: T3, immobilized IL-2Rγ monomer (Homo sapiens, UniProt P31785); experiment: Phage ELISA against immobilized IL-2Rγ monomer; format: binding; settings: high receptor density
T3 construct: was produced in recombinant host cells in a truncated form; made in house; host or cells: recombinant host cells (not fixed)
T3 sequence (P31785 23-262 limits assumed): T2 sequence (P31785 23-262 limits assumed)
Method: After several rounds of affinity enrichment, the phage or plasmids and accompanying peptides were examined by ELISA to determine if the peptides bind specifically to the receptor. This assay was carried out in a manner similar to the procedures used in the affinity enrichment process, except that after removing unbound phage (or plasmids), the wells were typically treated with rabbit anti-phage antibody, then with alkaline phosphatase (AP)-conjugated goat anti-rabbit antibody, or with anti-LacI-AP, and then the amount of alkaline phosphatase in each well was determined by standard methods. By comparing test wells with control wells containing an unrelated receptor, one can determine whether a peptide binds to IL-2Rα (or IL-2Rβ, γ, αβ, or βγ) specifically. Peptides found to bind specifically to the receptor were then synthesized as the free peptide (no phage) and tested for binding against (1) immobilized soluble receptor, (2) receptor expressed on the surface of cells, (3) the heterotrimer form of the receptor (i.e., IL-2Rαβγ) expressed on the surface of cells and (4) the two heterodimers IL-2Rαβ and IL-2Rβγ.
as §1

[5] = molecular target: T4, IL-2Rα expressed on CHO cells (Homo sapiens, UniProt P01589); experiment: 125I IL-2 binding assay, IL-2Rα expressed on CHO cells; settings: read-out: IC50, block of binding of 125I-labeled IL-2
T4 construct: expressed in transfected cells; host or cells: CHO cells
T4 sequence (P01589 22-240 limits assumed): T1 sequence (P01589 22-240 limits assumed)

CSCC[C@H](N)C(=O)N[C@@H](CC(=O)O)C(=O)N[C@@H](CS)C(=O)N[C@@H](CO)C(=O)N[C@@H](CCC(=O)O)C(=O)N[C@@H](C)C(=O)N[C@H](C(=O)N[C@@H](CC(C)C)C(=O)NCC(=O)N[C@@H](CCC(=O)O)C(=O)N[C@@H](CC(C)C)C(=O)N[C@@H](CS)C(=O)O)C(C)C (H-MDCSEAVLGELC-OH; N-terminus and C-terminus assumed)
IC50 [1]: < 500 µM

CTQEVYYSLL
competition with phage bearing peptides in binding to the βγ-subunit (βγ-subunit [2]): compete
binding to the βγ-subunit (βγ-subunit [3]): bound
competition with radiolabelled ligand (βγ-subunit [3]; βγ-subunit): competed
specific binding to IL-2Rγ [4]: bind to that subunit specifically

CC(C)[C@H](NC(=O)[C@@H]1CSSC[C@H](NC(=O)[C@H](CCCNC(=N)N)NC(=O)[C@@H](NC(=O)[C@@H](N)CO)C(C)C)C(=O)N[C@@H](CO)C(=O)N[C@@H](C)C(=O)N[C@@H](CO)C(=O)NCC(=O)N1)C(=O)O (H-SVRCSASGCV-OH; disulfide 4-9)
IC50 [5]: 134 µM
